Values of other authors, collected in patent US10179767B2 (GENENTECH, INC., priority 2015, dated 2019).

Settings: administered topically (Lidoderm patch); cited from earlier work

## CCN(CC)CC(=O)Nc1c(C)cccc1C [lidocaine]
  plasma concentrations: about 1 μM
